PubChem BioAssay AID652243, Drosophila RNAi Screening Center – 2013

- Test: 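Fly genes required for human androgen receptor driven transcription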 (primary screen)
- Cells: Drosophila S2R+ cells
- Reagent: long dsRNA against Drosophila genes
- Duration: 72 h (48 h, then 24 h hormone)
- Challenge: synthetic androgen R1881 at 10 nM for 24 h
- Measurement: 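Firefly light from an androgen-responsive reporter and Renilla control light per well, raw and unnormalised, for each of two replicates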
- Reading the numbers: firefly reporter light: higher = more light from androgen-responsive reporter; Renilla control light: higher = more constitutive control signal (cell number, transfection)
- Call rule: 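Hit when the log firefly-to-Renilla ratio dropped or increased by a fixed fold versus the mean of GFP or LacZ controls across duplicate plates; lowering cut given as 1.5 and as 3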
- Meaning of the calls: active = hit: reporter lowered or raised; inactive = no hit
The screen tested about 24,000 reagents; below is an unselected part of those that have a named target and a result. Of all reagents, 246 (1%) got an active call. 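Plates not normalised; calls are printed but the firefly/Renilla ratio behind them is not deposited; fold cut for lowering reported inconsistently.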 The raw values are shown without normalisation. The numbers tell different reagents against one gene apart. Names joined by + are all predicted targets of the reagent. No sequences are given here. The record does not give: the amount of reagent.

target	reagent	firefly reporter light, replicate 1	firefly reporter light, replicate 2	Renilla control light, replicate 1	Renilla control light, replicate 2	call
His4:CG33883 + His4:CG33889 + His4:CG33899 + 20 more	1	4.00e5	4.63e5	1.16e5	1.10e5	inactive
His4:CG33883 + His4:CG33889 + His4:CG33899 + 20 more	2	4.07e5	4.29e5	1.10e5	1.25e5	inactive
P5cr-2 (Pyrroline-5-carboxylate reductase-like 2)	1	67474	94719	1.32e6	1.05e6	inactive
CG11722	1	1.49e5	2.00e5	1.78e6	2.03e6	active
PolI (DNA polymerase iota)	1	89524	73059	1.97e6	1.32e6	inactive
CG13585	1	4.92e5	4.06e5	1.96e6	2.38e6	inactive
CG10214	1	1.44e5	92380	8.36e5	5.35e5	inactive
CG33080	1	1.84e5	2.58e5	2.78e6	3.56e6	inactive
CG33080	2	1.97e5	2.77e5	2.77e6	2.79e6	inactive
CG33080	3	1.01e5	95534	1.29e6	1.47e6	inactive
CG33080	4	2.73e5	2.64e5	5.81e5	5.78e5	inactive
CG2186	1	1.89e5	1.35e5	8.49e5	1.03e6	inactive
CG2186	2	8.33e5	6.52e5	6.34e5	5.75e5	inactive
CG11029	1	1.21e5	1.68e5	9.69e5	1.36e6	inactive
lectin-28C	1	1.71e5	2.02e5	1.85e6	1.95e6	inactive
lectin-28C	2	5.77e5	5.55e5	6.79e5	6.24e5	inactive
Gba1a (Glucocerebrosidase 1a)	1	8.21e5	8.62e5	2.73e6	2.07e6	inactive
PGAP3 (Post-GPI attachment to proteins 3)	1	8.24e5	6.44e5	1.67e6	1.88e6	inactive
CG13305	1	8.99e5	8.71e5	1.19e6	1.36e6	inactive
Cdk1 (Cyclin-dependent kinase 1)	1	1.44e5	1.60e5	7.58e5	1.02e6	active
CG2854	1	3.17e5	2.48e5	4.20e6	2.85e6	inactive
otp + asRNA:CR43160	1	5.24e5	3.99e5	1.51e6	1.17e6	inactive
CG41056 (retired record)	1	1.15e6	9.11e5	2.44e6	1.99e6	inactive
stj (straightjacket)	1	1.09e6	8.96e5	2.87e6	2.67e6	inactive

Entries above whose target name begins with H or h (2):
target	reagent	firefly reporter light, replicate 1	firefly reporter light, replicate 2	Renilla control light, replicate 1	Renilla control light, replicate 2	call
His4:CG33883 + His4:CG33889 + His4:CG33899 + 20 more	1	4.00e5	4.63e5	1.16e5	1.10e5	inactive
His4:CG33883 + His4:CG33889 + His4:CG33899 + 20 more	2	4.07e5	4.29e5	1.10e5	1.25e5	inactive
